This note sets out measurements from article PMC9816108.

The chains behind the UniProt entries cited, without tags or fusion partners. Residues count along the entry.
UniProt P62812, residues 28-455: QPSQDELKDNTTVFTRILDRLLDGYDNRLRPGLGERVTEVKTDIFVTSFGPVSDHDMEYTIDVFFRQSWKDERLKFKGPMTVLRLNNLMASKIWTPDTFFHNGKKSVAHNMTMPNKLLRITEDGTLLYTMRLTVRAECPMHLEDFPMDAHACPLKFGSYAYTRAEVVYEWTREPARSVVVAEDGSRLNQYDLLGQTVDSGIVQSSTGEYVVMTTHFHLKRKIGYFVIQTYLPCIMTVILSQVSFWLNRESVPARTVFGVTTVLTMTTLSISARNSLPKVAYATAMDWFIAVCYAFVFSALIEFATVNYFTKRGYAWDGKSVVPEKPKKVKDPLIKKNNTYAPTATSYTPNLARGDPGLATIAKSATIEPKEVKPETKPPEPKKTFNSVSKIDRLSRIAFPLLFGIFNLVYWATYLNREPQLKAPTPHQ
UniProt P26048, residues 29-451: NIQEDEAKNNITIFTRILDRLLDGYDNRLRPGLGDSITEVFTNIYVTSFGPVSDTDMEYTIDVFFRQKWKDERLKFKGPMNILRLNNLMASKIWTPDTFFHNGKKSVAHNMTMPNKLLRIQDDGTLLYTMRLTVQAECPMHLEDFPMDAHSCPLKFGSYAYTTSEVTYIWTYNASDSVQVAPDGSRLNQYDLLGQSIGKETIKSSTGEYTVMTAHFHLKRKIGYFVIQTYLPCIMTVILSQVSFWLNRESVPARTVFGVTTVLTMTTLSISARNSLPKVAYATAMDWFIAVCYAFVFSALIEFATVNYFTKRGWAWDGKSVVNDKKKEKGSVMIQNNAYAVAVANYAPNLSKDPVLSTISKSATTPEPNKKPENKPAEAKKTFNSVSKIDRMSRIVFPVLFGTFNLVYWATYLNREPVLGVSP
UniProt P16305, residues 20-453: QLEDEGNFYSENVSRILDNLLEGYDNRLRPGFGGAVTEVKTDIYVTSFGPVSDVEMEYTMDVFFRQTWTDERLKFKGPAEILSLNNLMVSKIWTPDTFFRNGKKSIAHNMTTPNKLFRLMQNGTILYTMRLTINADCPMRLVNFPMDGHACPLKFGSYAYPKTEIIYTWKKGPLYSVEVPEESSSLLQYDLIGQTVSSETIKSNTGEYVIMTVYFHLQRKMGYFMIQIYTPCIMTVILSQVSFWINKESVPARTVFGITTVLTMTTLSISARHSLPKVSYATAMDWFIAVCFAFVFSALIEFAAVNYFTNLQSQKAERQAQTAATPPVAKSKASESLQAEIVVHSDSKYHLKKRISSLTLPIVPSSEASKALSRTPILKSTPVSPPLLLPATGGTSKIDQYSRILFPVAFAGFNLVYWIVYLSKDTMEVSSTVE
UniProt Q7TSJ2: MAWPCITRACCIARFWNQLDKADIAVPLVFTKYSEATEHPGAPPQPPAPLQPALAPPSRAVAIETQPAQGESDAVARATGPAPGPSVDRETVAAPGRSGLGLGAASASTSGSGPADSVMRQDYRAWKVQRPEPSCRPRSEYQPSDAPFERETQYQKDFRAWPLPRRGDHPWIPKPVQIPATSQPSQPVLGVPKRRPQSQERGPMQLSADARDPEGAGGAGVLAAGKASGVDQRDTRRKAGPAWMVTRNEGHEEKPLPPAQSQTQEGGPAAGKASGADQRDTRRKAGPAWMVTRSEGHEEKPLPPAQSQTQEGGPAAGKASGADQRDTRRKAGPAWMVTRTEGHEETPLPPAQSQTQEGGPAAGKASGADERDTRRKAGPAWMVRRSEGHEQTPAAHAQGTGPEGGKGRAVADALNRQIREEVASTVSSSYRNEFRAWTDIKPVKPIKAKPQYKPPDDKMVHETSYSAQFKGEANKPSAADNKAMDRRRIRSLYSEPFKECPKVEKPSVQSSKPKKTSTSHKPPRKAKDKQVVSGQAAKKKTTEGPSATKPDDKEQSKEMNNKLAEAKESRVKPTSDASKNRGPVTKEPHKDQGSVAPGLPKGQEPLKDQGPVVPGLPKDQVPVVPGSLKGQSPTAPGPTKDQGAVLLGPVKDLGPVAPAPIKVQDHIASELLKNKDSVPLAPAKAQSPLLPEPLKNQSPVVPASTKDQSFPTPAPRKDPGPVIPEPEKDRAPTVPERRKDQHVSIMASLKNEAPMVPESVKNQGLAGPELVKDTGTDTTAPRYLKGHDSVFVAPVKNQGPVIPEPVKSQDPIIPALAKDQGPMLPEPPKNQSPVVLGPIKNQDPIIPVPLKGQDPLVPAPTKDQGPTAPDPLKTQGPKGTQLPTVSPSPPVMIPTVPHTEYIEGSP
UniProt Q61879: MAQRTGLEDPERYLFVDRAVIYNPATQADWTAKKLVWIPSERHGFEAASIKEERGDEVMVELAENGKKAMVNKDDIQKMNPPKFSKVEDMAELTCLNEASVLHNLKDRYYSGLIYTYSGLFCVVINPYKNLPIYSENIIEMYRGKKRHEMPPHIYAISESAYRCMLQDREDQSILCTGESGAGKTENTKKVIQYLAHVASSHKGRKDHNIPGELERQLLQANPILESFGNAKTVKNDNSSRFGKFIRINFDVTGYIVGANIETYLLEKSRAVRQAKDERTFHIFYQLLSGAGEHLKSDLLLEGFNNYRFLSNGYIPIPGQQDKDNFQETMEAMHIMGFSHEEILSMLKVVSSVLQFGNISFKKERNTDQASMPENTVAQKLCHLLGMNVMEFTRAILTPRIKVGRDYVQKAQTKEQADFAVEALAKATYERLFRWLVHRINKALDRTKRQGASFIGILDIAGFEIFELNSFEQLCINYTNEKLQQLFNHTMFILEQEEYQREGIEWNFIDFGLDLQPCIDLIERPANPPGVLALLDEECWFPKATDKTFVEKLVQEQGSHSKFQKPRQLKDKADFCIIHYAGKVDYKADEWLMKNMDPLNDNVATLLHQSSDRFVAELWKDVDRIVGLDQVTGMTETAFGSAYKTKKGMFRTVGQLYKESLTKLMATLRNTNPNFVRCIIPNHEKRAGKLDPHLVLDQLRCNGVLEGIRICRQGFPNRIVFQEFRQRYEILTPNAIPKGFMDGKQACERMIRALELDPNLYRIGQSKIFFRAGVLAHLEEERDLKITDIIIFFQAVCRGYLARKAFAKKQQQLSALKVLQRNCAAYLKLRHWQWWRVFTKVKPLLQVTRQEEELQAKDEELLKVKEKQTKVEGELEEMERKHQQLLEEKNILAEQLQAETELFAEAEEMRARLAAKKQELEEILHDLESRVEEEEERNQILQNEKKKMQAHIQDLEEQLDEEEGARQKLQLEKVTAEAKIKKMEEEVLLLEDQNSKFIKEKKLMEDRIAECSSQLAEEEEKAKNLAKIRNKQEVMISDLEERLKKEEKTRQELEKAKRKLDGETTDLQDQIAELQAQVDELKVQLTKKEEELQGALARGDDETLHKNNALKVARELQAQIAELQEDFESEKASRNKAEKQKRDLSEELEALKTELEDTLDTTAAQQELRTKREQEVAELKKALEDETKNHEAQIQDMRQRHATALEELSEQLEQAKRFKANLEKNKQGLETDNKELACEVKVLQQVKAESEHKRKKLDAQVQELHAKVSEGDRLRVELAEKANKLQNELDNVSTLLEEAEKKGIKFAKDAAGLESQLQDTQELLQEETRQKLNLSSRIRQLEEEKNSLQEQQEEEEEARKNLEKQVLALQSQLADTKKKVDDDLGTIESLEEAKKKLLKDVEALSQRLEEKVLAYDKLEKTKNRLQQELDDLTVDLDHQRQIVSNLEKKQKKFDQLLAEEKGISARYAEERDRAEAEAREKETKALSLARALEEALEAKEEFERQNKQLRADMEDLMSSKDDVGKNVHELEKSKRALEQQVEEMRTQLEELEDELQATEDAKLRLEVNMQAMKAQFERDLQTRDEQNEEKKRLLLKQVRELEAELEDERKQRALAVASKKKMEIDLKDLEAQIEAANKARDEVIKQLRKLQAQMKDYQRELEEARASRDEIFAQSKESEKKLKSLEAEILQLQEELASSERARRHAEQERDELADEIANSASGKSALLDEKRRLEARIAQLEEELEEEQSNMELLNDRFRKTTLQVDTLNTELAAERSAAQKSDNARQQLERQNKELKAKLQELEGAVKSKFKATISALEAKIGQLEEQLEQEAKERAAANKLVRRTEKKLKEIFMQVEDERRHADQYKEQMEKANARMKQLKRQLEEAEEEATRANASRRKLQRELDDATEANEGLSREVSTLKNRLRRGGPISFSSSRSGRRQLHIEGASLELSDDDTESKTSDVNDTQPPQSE
UniProt Q4ACU6: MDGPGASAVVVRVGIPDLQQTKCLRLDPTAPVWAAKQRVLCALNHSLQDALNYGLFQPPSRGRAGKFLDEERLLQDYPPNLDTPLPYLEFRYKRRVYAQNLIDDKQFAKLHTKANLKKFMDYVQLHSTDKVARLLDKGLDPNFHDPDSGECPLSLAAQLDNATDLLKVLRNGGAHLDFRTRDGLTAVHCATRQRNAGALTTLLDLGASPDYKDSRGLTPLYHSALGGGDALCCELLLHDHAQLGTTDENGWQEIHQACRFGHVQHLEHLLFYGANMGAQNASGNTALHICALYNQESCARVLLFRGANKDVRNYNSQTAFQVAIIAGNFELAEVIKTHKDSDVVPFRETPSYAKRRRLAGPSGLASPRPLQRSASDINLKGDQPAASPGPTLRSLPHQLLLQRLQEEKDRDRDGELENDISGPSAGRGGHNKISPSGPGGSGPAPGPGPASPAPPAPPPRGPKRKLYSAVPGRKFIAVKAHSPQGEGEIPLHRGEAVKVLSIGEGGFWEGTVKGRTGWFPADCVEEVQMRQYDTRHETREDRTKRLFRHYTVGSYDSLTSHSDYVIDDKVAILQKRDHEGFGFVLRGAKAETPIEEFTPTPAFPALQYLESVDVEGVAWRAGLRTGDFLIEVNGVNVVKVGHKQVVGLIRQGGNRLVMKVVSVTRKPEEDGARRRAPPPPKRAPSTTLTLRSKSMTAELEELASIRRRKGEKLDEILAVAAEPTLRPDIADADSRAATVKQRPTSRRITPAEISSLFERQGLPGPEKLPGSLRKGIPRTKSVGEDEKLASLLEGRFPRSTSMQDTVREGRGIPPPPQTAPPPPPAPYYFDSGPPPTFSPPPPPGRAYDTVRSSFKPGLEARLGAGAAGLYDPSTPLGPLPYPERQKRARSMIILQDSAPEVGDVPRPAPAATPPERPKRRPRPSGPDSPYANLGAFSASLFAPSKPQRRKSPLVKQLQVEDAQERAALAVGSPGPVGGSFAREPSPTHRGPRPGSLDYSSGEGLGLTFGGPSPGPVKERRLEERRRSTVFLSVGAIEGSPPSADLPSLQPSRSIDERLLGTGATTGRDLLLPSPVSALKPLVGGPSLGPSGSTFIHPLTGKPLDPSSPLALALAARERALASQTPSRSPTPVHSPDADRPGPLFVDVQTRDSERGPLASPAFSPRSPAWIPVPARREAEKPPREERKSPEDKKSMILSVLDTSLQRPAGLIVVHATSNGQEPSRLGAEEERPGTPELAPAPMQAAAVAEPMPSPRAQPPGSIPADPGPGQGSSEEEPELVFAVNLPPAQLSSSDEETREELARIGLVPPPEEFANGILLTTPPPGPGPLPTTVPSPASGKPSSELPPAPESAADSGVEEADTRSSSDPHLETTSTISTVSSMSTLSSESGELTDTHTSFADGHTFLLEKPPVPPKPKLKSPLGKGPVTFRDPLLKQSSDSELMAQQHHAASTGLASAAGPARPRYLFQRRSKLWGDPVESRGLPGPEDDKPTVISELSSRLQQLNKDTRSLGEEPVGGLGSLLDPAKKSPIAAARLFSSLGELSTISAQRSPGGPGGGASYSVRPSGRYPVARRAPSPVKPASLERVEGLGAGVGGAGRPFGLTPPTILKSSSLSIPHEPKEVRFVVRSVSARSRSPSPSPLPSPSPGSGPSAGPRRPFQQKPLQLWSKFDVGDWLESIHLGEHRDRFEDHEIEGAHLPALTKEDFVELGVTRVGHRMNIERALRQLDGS

The target in assay [1] is GABAA receptor α1 subunit (mouse (endogenous in forebrain)) (UniProt P62812). In words: affinity purification with mass spectrometry; α1 and α2 (pHα2) receptors immunopurified from mouse forebrain plasma membrane fractions, BN-PAGE, 720 kDa species excised, label-free LC-MS/MS; only proteins significantly enriched over control (non-immune IgG, or anti-9E10 in wild type tissue).

The target of assay [2] is GABAA receptor α2 subunit modified with pHluorin and 9E10 (myc) epitope on its N-terminus (mouse (knock-in, forebrain)) (UniProt P26048). The assay can be described thus: affinity purification with mass spectrometry; mouse forebrain plasma membranes solubilised in 0.5% Triton; α1 receptors with immobilised α1 monoclonal antibody from wild type tissue, α2 receptors with anti-9E10 (myc) beads from pHα2 tissue; soft elution, BN-PAGE, 250 kDa band excised, LC-MS/MS against control purifications.

The target is the same in assay [3]. The assay can be described thus: affinity purification with mass spectrometry; α1 and α2 (pHα2) receptors immunopurified from mouse forebrain plasma membrane fractions, BN-PAGE, 720 kDa species excised, label-free LC-MS/MS; only proteins significantly enriched over control (non-immune IgG, or anti-9E10 in wild type tissue).

No constants are given. Whether binding was seen depends on the method and setting. Binding seen in cells or lysates may run through a third protein. Here binding means that the protein was enriched with, or labelled near, the bait; the list need not be complete. For some assays here: No binding means not detected with the bait.

Consider Actn1 (from UniProt Q7TPR4 1-892), for which, in assay [1], the binding entry is “binds”.

With “GABAA receptor α6 subunit (from UniProt P16305 20-453)”, the binding entry in assay [2] is given as “no binding”.

In the case of Map6 (from UniProt Q7TSJ2 1-906), the binding result in assay [1] is given as “binds”.

Consider Myh10 (from UniProt Q61879 1-1976), for which the binding result in assay [1] and in assay [3] was “binds” throughout.

On to Myo5a (from UniProt Q99104 1-1853), for which the binding result in assay [1] and in assay [3] was “binds” each time.

Consider Ppp1r9b (from UniProt Q6R891 1-817), for which the binding entry in assay [1] is listed as “binds”.

For Shank3 (from UniProt Q4ACU6 1-1730), the binding result in assay [1] was “binds”.

Consider Syngap1 (from UniProt F6SEU4 1-1340), for which the binding result in assay [1] is reported as “binds”.

Turning to “α2 spectrin (from UniProt P16546 1-2472)”, the binding result in assay [1] and in assay [3] was “binds” each time.

With “β2 spectrin (from UniProt Q62261 1-2363)”, the binding result in assay [1] and in assay [3] was “binds” in each case.
